Laboratory results as given in the supplement of paper PMC12067093, “Discovery and optimisation of a covalent ligand for TRIM25 and its application to targeted protein ubiquitination” (Chemical Science, 2025).
The list shows a part of the results.

Chains of the proteins cited; added tags and fusions are not shown. Lines headed by an entry give the natural chain unless they say otherwise; changes in a name come on top.
UniProt O14981: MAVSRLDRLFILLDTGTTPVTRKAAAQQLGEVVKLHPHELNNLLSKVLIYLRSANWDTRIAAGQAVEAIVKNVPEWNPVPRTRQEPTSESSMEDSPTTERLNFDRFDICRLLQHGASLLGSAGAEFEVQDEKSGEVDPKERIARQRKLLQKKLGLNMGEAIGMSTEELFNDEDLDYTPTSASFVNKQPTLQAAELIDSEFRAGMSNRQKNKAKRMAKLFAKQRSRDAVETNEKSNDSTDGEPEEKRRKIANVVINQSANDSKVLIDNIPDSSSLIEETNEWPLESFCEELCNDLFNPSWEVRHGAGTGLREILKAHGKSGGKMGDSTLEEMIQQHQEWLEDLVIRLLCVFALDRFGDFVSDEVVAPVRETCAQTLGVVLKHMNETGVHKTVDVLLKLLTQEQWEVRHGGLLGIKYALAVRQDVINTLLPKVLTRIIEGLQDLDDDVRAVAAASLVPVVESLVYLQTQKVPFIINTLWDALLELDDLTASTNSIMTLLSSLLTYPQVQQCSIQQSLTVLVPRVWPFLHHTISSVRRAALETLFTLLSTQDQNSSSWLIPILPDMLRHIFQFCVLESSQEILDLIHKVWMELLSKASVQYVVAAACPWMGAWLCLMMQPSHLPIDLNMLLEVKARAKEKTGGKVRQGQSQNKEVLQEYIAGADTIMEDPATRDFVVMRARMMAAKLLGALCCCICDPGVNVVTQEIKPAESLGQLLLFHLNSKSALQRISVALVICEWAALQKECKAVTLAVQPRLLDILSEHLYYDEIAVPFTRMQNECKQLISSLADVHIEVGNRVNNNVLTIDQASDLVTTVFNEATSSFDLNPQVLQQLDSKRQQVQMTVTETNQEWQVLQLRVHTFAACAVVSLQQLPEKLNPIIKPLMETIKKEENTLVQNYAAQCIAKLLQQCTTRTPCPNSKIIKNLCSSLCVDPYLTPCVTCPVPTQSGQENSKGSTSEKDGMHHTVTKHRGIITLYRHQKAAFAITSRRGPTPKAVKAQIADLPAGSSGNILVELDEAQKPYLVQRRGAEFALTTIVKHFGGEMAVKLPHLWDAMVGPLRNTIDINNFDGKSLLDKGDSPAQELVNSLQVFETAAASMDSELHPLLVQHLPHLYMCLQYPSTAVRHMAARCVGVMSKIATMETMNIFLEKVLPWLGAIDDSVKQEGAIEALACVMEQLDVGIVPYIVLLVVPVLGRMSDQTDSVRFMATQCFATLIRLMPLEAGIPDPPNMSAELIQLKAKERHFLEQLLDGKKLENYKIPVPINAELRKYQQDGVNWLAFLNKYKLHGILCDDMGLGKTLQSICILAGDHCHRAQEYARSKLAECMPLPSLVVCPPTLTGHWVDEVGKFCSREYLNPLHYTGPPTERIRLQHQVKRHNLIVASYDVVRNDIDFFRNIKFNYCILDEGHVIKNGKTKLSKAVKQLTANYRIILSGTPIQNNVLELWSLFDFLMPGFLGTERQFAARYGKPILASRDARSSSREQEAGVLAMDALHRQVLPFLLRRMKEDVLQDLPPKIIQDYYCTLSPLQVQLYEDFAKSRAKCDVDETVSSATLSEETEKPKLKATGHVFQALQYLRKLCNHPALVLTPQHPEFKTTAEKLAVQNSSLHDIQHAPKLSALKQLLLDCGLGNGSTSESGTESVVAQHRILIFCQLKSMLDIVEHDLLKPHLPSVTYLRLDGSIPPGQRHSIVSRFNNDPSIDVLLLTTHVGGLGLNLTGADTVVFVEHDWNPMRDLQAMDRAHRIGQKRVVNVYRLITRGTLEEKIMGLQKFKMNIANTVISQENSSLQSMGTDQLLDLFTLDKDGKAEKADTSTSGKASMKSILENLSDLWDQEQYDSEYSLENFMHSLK
UniProt O60566, whole entry, looked up: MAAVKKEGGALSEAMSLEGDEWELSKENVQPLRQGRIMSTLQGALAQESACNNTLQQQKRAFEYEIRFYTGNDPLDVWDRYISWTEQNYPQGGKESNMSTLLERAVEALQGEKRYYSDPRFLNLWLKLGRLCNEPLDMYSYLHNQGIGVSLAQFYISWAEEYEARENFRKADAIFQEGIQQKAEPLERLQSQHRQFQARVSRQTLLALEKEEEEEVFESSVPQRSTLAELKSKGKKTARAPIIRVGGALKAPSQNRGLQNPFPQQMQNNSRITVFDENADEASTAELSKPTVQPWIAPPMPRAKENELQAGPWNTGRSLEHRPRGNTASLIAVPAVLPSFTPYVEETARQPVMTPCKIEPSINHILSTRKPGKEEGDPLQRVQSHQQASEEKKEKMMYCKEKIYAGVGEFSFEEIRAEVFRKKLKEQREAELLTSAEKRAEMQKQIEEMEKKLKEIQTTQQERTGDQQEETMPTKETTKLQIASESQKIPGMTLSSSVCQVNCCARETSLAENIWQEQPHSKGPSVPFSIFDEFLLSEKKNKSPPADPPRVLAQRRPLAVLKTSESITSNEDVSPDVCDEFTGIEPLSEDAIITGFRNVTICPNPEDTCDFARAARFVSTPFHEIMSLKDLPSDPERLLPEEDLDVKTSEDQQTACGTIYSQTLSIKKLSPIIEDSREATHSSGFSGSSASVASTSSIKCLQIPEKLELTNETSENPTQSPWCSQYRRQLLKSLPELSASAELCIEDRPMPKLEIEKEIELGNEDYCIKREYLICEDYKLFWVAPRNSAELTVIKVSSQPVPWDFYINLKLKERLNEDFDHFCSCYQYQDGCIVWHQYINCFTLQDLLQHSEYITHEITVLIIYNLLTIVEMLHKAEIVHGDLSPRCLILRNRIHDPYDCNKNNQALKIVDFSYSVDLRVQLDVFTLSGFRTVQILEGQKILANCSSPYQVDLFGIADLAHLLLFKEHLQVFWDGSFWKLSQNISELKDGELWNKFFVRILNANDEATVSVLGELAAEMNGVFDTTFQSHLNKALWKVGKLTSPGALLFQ
UniProt Q9BX63: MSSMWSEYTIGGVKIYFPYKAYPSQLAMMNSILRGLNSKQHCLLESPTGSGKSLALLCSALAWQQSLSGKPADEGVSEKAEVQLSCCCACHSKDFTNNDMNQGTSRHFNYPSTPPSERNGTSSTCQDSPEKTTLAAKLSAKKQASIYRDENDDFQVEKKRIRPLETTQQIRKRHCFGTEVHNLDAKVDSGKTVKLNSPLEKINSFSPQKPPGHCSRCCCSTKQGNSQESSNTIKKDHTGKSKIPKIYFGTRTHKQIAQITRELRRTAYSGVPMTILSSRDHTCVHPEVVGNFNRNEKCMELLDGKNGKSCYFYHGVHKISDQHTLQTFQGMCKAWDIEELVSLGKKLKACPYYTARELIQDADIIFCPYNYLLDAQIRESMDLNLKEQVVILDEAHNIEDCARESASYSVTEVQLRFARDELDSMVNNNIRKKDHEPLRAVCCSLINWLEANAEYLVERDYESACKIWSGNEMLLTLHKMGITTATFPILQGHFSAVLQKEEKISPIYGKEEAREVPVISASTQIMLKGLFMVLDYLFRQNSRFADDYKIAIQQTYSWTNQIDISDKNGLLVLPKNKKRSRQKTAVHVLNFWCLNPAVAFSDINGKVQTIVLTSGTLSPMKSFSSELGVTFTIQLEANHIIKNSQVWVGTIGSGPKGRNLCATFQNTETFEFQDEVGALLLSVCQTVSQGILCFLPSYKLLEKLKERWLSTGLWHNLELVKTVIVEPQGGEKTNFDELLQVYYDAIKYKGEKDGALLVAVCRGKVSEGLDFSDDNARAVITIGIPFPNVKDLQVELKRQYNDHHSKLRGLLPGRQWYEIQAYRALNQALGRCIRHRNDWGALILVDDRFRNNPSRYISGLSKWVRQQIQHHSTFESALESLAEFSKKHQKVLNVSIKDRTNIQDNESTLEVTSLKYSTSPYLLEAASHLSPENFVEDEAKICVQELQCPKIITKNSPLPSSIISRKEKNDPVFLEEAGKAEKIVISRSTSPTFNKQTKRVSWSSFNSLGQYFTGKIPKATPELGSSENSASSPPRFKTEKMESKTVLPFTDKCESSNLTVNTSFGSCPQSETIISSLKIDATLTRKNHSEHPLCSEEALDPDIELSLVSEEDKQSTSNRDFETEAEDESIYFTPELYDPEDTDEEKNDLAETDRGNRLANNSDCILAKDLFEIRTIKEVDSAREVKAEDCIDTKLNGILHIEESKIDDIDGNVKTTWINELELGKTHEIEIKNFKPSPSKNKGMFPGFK
UniProt P41223: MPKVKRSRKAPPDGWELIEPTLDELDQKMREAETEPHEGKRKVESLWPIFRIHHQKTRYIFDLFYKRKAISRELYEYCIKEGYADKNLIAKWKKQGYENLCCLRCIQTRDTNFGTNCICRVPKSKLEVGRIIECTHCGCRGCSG
UniProt Q6PJG6: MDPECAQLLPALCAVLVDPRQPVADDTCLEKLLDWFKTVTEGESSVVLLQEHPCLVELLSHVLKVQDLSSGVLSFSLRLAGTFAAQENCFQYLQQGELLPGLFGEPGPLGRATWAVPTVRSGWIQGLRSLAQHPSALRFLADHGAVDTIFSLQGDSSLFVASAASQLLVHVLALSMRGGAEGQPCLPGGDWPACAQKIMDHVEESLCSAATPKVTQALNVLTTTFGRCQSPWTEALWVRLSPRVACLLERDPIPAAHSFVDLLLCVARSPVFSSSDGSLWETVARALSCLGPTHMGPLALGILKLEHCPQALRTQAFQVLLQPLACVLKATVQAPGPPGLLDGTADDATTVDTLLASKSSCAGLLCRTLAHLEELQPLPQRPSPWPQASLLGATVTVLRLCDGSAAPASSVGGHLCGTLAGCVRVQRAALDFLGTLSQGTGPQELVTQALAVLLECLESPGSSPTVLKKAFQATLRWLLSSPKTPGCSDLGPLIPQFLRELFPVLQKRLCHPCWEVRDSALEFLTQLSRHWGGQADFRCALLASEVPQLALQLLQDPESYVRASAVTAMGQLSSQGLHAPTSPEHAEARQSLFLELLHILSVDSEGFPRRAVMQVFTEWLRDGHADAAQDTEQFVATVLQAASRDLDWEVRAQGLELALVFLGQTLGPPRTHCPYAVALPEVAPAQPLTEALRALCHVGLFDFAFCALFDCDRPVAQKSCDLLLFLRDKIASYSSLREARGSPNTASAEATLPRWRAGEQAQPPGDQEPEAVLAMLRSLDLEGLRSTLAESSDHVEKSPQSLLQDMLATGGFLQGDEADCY
UniProt Q10588: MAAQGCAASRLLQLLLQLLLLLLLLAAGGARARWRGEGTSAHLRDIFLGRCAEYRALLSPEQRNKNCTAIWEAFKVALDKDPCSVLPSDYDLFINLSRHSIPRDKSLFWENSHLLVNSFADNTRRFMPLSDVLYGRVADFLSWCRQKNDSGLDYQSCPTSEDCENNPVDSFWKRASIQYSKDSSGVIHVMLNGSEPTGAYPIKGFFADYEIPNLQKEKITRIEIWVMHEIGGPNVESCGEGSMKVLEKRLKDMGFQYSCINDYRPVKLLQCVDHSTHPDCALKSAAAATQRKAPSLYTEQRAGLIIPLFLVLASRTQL
UniProt Q9BX70: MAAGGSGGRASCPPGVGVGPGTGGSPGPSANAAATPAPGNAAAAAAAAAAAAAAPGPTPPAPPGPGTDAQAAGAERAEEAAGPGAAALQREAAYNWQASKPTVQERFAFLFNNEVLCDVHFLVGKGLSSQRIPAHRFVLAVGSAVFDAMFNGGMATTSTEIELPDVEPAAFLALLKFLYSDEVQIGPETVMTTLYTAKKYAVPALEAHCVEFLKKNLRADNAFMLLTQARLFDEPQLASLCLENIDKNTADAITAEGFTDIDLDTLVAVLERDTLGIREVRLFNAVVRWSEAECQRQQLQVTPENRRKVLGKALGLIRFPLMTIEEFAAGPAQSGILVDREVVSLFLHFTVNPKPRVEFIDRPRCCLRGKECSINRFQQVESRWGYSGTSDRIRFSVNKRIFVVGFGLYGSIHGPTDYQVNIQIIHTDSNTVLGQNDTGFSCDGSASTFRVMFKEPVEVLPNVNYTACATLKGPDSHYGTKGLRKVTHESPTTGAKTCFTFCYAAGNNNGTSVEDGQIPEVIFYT
UniProt Q9H0W9: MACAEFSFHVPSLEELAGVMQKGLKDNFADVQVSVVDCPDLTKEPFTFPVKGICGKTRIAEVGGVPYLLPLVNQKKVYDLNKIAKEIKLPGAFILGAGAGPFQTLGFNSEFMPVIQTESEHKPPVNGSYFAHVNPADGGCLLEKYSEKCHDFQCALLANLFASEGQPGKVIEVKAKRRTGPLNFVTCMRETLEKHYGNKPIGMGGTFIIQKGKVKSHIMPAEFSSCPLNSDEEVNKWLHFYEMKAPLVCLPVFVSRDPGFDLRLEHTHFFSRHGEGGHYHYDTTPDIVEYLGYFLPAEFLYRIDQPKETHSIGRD
UniProt O43684, whole entry, looked up: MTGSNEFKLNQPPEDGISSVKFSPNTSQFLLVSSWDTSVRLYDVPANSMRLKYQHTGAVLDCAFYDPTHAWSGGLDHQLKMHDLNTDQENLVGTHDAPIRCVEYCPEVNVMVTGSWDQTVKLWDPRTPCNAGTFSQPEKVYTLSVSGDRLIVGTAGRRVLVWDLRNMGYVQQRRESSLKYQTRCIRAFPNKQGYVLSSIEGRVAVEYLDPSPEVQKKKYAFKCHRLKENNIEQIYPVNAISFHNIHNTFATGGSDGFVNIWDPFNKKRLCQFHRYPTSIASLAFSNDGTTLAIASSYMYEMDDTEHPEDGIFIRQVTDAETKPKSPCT

Compound: CC1Cc2ccccc2N1C(=O)C1CCCN(C1)C(=O)CCl (mixture of isomers) [TRIM25 ligand 11 (diastereomer mixture)]
Test: probe-labelled cysteine peptide fold change vs DMSO (competition) (log2 fold change); higher = less target engagement (more negative = stronger competition)
Settings: THP-1, incubation time: 4 h
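Note: competitive chemoproteomic profiling in live THP-1 cells with an iodoacetamide desthiobiotin (IA-DTB) probe, comparing probe-labelled peptide intensities in compound-treated cells against DMSO-treated controls.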

| Target | probe-labelled cysteine peptide fold change (10 µM) | probe-labelled cysteine peptide fold change (50 µM) |
| --- | --- | --- |
| BRCC3_P46736_38_EEVMGLCIGELNDDTR (UniProt P46736) | -0.0467 | -0.117 |
| BTAF1_O14981_1522_IIQDYYCTLSPLQVQLYEDFAK (UniProt O14981) | -0.0687 | -0.00295 |
| CAMK1D_Q8IU85_270_YTCEQAAR (UniProt Q8IU85) | -0.0281 | 0.0147 |
| BRWD1_Q9NSI6_1166_SRDEECDR (UniProt Q9NSI6) | 0.0938 | 0.0153 |
| CAMK2B_Q13554_116_EYYSEADASHCIQQILEAVLHCHQMGVVHR (UniProt Q13554) | -0.000112 | -0.229 |
| BTK_Q06187_165_NAMGCQILENR (UniProt Q06187) | -0.126 | -0.24 |
| C12orf29_Q8N999_302_CLFNHFLK (UniProt Q8N999) | -0.0449 | -0.289 |
| CAD_P27708_280_GHNQPCLLVGSGR (UniProt P27708) | -0.018 | 0.065 |
| CABIN1_Q9Y6J0_1573_DVLLGSSIPWQQLQHMPAQGLFCER (UniProt Q9Y6J0) | 0.104 | -0.0632 |
| CAMSAP1_Q5T5Y3_1379_EESCSDSGTK (UniProt Q5T5Y3) | 0.111 | 0.079 |
| CAD_P27708_1636_GLPVTCEVAPHHLFLSHDDLER (UniProt P27708) | -0.112 | -0.0632 |
| CAD_P27708_1296_CEAYLK (UniProt P27708) | – | 0.0247 |
| C1orf50_Q9BV19_189_ISMMDTLLSQSVALPPCTEPNFQGLTH (UniProt Q9BV19) | -0.116 | -0.171 |
| C16orf62_Q7Z3J2_614_HQQEPTKDPVILNALLHVCK (UniProt Q7Z3J2) | 0.122 | 0.337 |
| C8orf37_Q96NL8_33_GCGGGTHSSDR (UniProt Q96NL8) | 0.133 | -0.242 |
| CACNA1G_O43497_1019_CLALVSLGEHPELR (UniProt O43497) | 0.0446 | -0.0139 |
| BRD7_Q9NPI1_338_LVNSQCEFER (UniProt Q9NPI1) | 0.143 | 0.253 |
| C3orf58_Q8NDZ4_402_DGRLEALLDECANPK (UniProt Q8NDZ4) | -0.0851 | 0.0696 |
| C16orf62_Q7Z3J2_277_ETCLNWFFK (UniProt Q7Z3J2) | 0.0325 | 0.136 |
| C12orf49_Q9H741_93_HLITDELGYVCER (UniProt Q9H741) | -0.136 | -0.121 |
| BRF1_Q92994_9_GCGGTDIELDAAR (UniProt Q92994) | 0.0987 | -0.26 |

| Target | probe-labelled cysteine peptide fold change (10 µM) | probe-labelled cysteine peptide fold change (50 µM) |
| --- | --- | --- |
| BUB1B_O60566_51_IMSTLQGALAQESACNNTLQQQK (UniProt O60566) | -0.0291 | -0.087 |
| BTAF1_O14981_1209_FMATQCFATLIR (UniProt O14981) | -0.0199 | 0.142 |
| BRCA1_P38398_348_KVDLNADPLCER (UniProt P38398) | -0.121 | -0.3 |
| CALR_P27797_163_CKDDEFTHLYTLIVR (UniProt P27797) | 0.0557 | 0.0851 |
| C12orf4_Q9NQ89_55_LMLLHSLPCFIEK (UniProt Q9NQ89) | -0.0485 | 0.0867 |
| BRIP1_Q9BX63_401_EQVVILDEAHNIEDCAR (UniProt Q9BX63) | 0.0399 | -0.19 |
| BUD31_P41223_78_ELYEYCIK (UniProt P41223) | 0.0518 | -0.0462 |
| CAMSAP1_Q5T5Y3_1487_SNKPIIHNAISHCCLAGK (UniProt Q5T5Y3) | -0.189 | -0.182 |
| BTBD10_Q9BSF8_239_CPDGISIPELR (UniProt Q9BSF8) | 0.19 | 0.0823 |
| BRIP1_Q9BX63_332_ISDQHTLQTFQGMCK (UniProt Q9BX63) | 0.111 | 0.0335 |
| BRD9_Q9H8M2_288_EVISCMFEPEGNACSLTDSTAEEHVLALVEHAADEAR (UniProt Q9H8M2) | -0.288 | -0.119 |
| CAND1_Q86VP6_92_EYQVETIVDTLCTNMLSDK (UniProt Q86VP6) | 0.0772 | 0.136 |
| BRAT1_Q6PJG6_228_CQSPWTEALWVR (UniProt Q6PJG6) | 0.0375 | -0.434 |
| BRD4_O60885_674_YVTSCLR (UniProt O60885) | -0.084 | 0.039 |
| C7orf50_Q9BRJ6_107_SGAELALDYLCR (UniProt Q9BRJ6) | 0.00661 | 0.0359 |
| BTAF1_O14981_371_ETCAQTLGVVLK (UniProt O14981) | -0.0373 | -0.0212 |
| C17orf75_Q9HAS0_296_FCEDWMQAFLNGAK (UniProt Q9HAS0) | 0.221 | 0.34 |
| BST1_Q10588_271+280_LLQCVDHSTHPDCALK (UniProt Q10588) | 0.0735 | -0.00153 |
| CAND1_Q86VP6_237_TYIQCIAAISR (UniProt Q86VP6) | 0.19 | 0.181 |
| CAMK2G_Q13555_290_QETVECLR (UniProt Q13555) | -0.000214 | 0.0281 |
| C2CD2L_O14523_359_SSSCGDTELLGQATLPVGSPSRPLSR (UniProt O14523) | 0.26 | 0.244 |

| Target | probe-labelled cysteine peptide fold change (10 µM) | probe-labelled cysteine peptide fold change (50 µM) |
| --- | --- | --- |
| BRD4_O60885_429_LMFSNCYK (UniProt O60885) | -0.0315 | 0.0408 |
| BTAF1_O14981_1579_LCNHPALVLTPQHPEFK (UniProt O14981) | -0.0222 | 0.104 |
| BPTF_Q12830_1969_IICPIGVPETPK (UniProt Q12830) | 0.0568 | 0.0296 |
| C1GALT1_Q9NS00_232_CTHSSSIEDLALGR (UniProt Q9NS00) | 0.129 | -0.188 |
| BTN2A1_Q7KYR7_475_SHIYTCPR (UniProt Q7KYR7) | -0.00896 | 0.0957 |
| CAD_P27708_986_TIMVNYNPETVSTDYDMCDR (UniProt P27708) | -0.138 | -0.21 |
| BUB1B_O60566_775_EYLICEDYK (UniProt O60566) | 0.272 | 0.268 |
| BRAT1_Q6PJG6_673_THCPYAVALPEVAPAQPLTEALR (UniProt Q6PJG6) | -0.151 | -0.389 |
| BSG_P35613_242_SSEHINEGETAMLVCK (UniProt P35613) | -0.00409 | -0.171 |
| BTBD2_Q9BX70_241_LFDEPQLASLCLENIDK (UniProt Q9BX70) | 0.22 | 0.0147 |
| C2CD5_Q86YS7_243_AIGTACTLDK (UniProt Q86YS7) | 0.0372 | 0.0778 |
| C20orf27_Q9GZN8_131_EEILLACEGGTGTCVR (UniProt Q9GZN8) | 0.246 | 0.228 |
| BRD9_Q9H8M2_101_EHCDTEGEADDFDPGK (UniProt Q9H8M2) | -0.0969 | -0.0577 |
| BST1_Q10588_238_IEIWVMHEIGGPNVESCGEGSMK (UniProt Q10588) | -0.0571 | -0.182 |
| C11orf54_Q9H0W9_187_TGPLNFVTCMR (UniProt Q9H0W9) | -0.102 | -0.0753 |
| C11orf68_Q9H3H3_214_QVICVYTDDFTDR (UniProt Q9H3H3) | -0.0475 | -0.00703 |
| BTBD2_Q9BX70_294_WSEAECQR (UniProt Q9BX70) | -0.0695 | -0.00465 |
| BRD2_P25440_706_YVLSCLR (UniProt P25440) | -0.118 | -0.0436 |
| BUB3_O43684_129_TPCNAGTFSQPEK (UniProt O43684) | -0.0896 | -0.0906 |
| C5orf51_A6NDU8_244_YCADQQPENHEVDTSVSGAGCTTYKEPLDFR (UniProt A6NDU8) | 0.0461 | -0.233 |
| CAMK1_Q14012_267_FTCEQALQHPWIAGDTALDK (UniProt Q14012) | 0.0431 | 0.0321 |

| Target | probe-labelled cysteine peptide fold change (10 µM) | probe-labelled cysteine peptide fold change (50 µM) |
| --- | --- | --- |
| C2orf69_Q8N8R5_267_GCVVLNQLLFELK (UniProt Q8N8R5) | 0.0349 | 0.0787 |
| CAD_P27708_1682_QDVEALWENMAVIDCFASDHAPHTLEEK (UniProt P27708) | -0.0372 | -0.318 |
| BUB3_O43684_62_YQHTGAVLDCAFYDPTHAWSGGLDHQLK (UniProt O43684) | -0.0182 | -0.0029 |
| CAMKK1_Q8N5S9_351_CPFIDDFILALHR (UniProt Q8N5S9) | -0.277 | 0.12 |
| CAD_P27708_787_MVDENCVGFDHTVKPVSDMELETPTDKR (UniProt P27708) | -0.00934 | -0.00423 |
| CAMSAP1_Q5T5Y3_47_IAANLQWICAK (UniProt Q5T5Y3) | 0.0318 | -0.0352 |
| C3_P01024_873_VRVELLHNPAFCSLATTK (UniProt P01024) | 0.0395 | 0.0214 |
| BRD8_Q9H0E9_26_LCLASSVMR (UniProt Q9H0E9) | -0.223 | 0.044 |
| C11orf54_Q9H0W9_3_ACAEFSFHVPSLEELAGVMQK (UniProt Q9H0W9) | -0.285 | -0.183 |
| CAD_P27708_484_NERPDGVLLTFGGQTALNCGVELTK (UniProt P27708) | -0.00656 | 0.00784 |
| C9orf64_Q5T6V5_170_FGGSFLNCVR (UniProt Q5T6V5) | 0.0334 | 0.145 |
| CAMKV_Q8NCB2_181_EPCGTPEYLAPEVVGR (UniProt Q8NCB2) | 0.076 | -0.131 |
| BRIX1_Q8TDN6_52_RHATAEEVEEEERDRIPGPVCK (UniProt Q8TDN6) | 0.0287 | -0.13 |
| CAMK2D_Q13557_273_HPWICQR (UniProt Q13557) | -0.213 | -0.0433 |
| C15orf39_Q6ZRI6_831_CPFPHVVR (UniProt Q6ZRI6) | 0.0287 | 0.0831 |
| CAND1_Q86VP6_356_CLDAVVSTR (UniProt Q86VP6) | 0.0296 | 0.129 |
| BROX_Q5VW32_52_LLELFTDLSCNPEMMK (UniProt Q5VW32) | -0.0592 | -0.107 |
| C6orf106_Q9H6K1_18_FSCLGTTDK (UniProt Q9H6K1) | 0.0921 | -0.0712 |
| BRWD3_Q6RI45_202_IFTGSDDCLVK (UniProt Q6RI45) | 0.176 | 0.155 |
| CAD_P27708_1501_EDFASGTAAALAGGITMVCAMPNTRPPIIDAPALALAQK (UniProt P27708) | 0.215 | 0.36 |
| CAND2_O75155_358_CIAALISSRPDLLPDFHCTLAPVLIR (UniProt O75155) | 0.164 | 0.095 |
